Some of the results follow.
How the values were obtained:
Experiment in all cases: log2 fold change, soluble protein after heating vs DMSO (PISA); higher = thermal stabilisation; K562 lysate, 10 uM; active = over 0.2 and 3.5 SD of the protein, either way, in both replicates (recomputed)
pictilisib = compound: CS(=O)(=O)N1CCN(Cc2cc3nc(-c4cccc5[nH]ncc45)nc(N4CCOCC4)c3s2)CC1 [pictilisib]
How it was run: (§1)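 A 30 min treatment with 10 μM compound was applied to crude K562 extract at 1 mg/mL protein in PBS pH 7.4 with 1 mM MgCl2. Heating for 3 min spanned 48°C-58°C, after which aliquots were pooled, adjusted to 0.5% NP-40 at 4°C and spun at 21,000xg for 90 min. TMTpro 16plex LC-MS/MS of the supernatant, with channel sums equalised, gave values recorded as log-two fold change in thermal stability against solvent controls, from duplicates.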

Sequences of proteins named here, by UniProt entry; tags and fusion partners are left off. A change or cut given only in a name is not applied to a line headed by its entry.
UniProt Q8IZY2: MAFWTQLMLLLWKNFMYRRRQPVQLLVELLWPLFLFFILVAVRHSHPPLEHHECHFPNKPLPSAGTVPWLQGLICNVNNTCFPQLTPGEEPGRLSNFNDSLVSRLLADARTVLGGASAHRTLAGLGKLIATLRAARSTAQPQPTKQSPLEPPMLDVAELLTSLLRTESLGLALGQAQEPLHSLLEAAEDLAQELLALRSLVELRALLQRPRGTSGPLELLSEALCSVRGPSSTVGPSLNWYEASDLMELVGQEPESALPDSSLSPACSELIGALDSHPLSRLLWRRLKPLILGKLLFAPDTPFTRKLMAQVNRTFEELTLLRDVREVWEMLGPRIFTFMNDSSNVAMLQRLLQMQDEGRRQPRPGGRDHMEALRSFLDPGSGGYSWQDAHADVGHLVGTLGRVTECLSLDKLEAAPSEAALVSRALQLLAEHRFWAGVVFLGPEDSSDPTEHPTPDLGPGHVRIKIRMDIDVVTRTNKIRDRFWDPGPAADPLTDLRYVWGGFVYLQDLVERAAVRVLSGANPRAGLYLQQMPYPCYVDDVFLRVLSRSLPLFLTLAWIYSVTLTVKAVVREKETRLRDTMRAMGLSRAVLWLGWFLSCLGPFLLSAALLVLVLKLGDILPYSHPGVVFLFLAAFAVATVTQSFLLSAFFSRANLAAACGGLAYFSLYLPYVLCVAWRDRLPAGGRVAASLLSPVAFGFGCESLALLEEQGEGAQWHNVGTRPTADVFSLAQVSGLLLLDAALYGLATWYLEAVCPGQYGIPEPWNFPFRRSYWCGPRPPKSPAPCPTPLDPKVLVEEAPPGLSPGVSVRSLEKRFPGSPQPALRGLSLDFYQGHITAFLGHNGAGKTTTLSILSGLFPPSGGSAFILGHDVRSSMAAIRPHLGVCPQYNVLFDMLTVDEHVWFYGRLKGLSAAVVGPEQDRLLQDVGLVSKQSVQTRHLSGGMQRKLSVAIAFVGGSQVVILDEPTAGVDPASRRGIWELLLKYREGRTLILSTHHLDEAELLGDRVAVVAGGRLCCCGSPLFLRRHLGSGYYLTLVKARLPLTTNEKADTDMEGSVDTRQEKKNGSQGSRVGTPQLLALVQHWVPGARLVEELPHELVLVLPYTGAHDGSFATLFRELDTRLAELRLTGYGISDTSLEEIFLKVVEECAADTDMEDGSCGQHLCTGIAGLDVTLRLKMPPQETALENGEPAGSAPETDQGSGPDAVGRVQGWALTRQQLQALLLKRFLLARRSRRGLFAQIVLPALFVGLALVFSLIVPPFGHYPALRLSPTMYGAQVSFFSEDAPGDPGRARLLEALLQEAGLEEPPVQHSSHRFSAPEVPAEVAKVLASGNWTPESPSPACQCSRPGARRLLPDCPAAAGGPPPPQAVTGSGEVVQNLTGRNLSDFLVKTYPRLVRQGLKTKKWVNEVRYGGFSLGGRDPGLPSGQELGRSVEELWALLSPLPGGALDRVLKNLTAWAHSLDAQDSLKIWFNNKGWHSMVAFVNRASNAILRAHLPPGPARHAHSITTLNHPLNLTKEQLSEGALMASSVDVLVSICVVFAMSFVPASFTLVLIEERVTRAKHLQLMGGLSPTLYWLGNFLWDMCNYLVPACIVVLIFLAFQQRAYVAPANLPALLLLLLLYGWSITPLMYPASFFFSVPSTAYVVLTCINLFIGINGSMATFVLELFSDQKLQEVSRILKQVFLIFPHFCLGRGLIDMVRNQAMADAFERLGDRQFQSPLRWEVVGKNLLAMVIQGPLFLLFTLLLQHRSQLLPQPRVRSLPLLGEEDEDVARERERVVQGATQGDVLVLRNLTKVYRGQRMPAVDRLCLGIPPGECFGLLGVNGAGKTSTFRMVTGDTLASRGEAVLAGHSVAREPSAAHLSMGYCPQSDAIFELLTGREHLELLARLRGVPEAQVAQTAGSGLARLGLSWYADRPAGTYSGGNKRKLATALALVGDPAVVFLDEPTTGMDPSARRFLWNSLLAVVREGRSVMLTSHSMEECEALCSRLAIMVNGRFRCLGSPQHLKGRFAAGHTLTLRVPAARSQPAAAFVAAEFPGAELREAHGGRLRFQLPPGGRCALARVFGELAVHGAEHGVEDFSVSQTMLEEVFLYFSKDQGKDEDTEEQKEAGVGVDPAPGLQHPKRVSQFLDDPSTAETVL
UniProt O14678: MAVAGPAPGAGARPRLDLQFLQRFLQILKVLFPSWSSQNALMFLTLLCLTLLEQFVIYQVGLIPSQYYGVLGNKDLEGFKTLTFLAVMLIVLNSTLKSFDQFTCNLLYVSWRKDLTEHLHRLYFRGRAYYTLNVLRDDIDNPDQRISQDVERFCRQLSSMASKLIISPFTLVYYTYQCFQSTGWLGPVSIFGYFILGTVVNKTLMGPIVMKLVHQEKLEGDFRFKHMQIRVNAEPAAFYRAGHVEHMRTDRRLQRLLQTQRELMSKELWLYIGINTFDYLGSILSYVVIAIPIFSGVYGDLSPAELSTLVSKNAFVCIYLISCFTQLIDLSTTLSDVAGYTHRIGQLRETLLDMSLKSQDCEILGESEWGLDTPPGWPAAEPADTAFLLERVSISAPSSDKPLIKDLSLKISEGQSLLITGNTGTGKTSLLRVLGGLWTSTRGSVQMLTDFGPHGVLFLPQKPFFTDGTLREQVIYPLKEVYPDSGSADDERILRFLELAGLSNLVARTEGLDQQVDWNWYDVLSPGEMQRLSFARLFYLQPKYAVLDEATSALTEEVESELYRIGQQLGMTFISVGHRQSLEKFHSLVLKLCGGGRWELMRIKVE
UniProt O94911: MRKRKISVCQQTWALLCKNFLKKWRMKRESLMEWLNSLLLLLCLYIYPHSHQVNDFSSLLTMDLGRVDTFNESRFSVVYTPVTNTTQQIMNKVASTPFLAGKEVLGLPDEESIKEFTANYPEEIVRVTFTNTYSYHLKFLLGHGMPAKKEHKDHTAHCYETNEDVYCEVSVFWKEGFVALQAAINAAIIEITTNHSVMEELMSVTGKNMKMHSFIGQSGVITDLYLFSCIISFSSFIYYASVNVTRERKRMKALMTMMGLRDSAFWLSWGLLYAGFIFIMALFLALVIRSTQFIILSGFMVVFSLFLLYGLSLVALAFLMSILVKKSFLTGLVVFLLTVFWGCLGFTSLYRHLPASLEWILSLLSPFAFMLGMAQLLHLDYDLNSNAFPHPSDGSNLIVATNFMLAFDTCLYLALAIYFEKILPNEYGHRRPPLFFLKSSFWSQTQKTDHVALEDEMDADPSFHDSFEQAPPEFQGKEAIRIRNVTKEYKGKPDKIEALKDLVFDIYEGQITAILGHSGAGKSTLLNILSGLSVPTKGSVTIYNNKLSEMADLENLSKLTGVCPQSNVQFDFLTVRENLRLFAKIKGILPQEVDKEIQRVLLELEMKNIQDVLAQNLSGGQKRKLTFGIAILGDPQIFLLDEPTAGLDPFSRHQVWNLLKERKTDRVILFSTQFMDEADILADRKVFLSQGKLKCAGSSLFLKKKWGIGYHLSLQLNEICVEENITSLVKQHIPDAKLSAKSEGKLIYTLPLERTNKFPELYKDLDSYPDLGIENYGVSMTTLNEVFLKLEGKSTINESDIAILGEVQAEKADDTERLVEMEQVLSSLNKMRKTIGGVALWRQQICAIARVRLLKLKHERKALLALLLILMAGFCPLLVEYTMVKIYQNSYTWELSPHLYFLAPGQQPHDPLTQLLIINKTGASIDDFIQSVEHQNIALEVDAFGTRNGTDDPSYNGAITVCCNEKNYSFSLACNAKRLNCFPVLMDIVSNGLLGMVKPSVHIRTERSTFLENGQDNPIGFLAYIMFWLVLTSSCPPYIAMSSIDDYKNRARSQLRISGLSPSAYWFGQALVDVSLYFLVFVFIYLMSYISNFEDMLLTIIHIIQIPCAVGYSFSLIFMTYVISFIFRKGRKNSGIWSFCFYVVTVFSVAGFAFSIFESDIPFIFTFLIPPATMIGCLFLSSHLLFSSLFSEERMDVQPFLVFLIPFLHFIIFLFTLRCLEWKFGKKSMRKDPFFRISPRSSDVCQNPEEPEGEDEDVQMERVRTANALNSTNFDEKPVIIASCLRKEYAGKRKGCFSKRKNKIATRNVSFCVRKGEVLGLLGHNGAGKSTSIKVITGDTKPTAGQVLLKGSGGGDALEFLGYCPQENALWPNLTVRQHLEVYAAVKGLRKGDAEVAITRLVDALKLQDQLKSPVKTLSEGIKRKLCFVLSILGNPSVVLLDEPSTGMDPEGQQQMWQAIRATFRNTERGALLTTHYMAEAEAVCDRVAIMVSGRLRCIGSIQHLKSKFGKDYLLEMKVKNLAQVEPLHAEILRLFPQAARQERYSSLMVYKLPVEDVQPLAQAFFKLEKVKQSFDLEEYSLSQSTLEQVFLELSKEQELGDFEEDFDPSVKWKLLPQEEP
UniProt Q9P1F3: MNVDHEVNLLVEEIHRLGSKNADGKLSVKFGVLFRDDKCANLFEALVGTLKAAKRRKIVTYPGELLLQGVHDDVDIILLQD
UniProt Q9BTE6: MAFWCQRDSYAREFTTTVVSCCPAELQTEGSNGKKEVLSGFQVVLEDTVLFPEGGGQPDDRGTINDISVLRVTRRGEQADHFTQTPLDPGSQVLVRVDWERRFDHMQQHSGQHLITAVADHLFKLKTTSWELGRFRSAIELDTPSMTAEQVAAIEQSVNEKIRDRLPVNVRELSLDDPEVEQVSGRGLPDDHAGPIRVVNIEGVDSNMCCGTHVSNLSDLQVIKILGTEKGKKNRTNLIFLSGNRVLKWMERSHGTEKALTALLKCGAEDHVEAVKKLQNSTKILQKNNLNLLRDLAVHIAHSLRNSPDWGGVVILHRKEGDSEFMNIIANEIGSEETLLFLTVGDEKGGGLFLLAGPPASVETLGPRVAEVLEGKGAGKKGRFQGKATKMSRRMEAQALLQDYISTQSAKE
UniProt A8K2U0: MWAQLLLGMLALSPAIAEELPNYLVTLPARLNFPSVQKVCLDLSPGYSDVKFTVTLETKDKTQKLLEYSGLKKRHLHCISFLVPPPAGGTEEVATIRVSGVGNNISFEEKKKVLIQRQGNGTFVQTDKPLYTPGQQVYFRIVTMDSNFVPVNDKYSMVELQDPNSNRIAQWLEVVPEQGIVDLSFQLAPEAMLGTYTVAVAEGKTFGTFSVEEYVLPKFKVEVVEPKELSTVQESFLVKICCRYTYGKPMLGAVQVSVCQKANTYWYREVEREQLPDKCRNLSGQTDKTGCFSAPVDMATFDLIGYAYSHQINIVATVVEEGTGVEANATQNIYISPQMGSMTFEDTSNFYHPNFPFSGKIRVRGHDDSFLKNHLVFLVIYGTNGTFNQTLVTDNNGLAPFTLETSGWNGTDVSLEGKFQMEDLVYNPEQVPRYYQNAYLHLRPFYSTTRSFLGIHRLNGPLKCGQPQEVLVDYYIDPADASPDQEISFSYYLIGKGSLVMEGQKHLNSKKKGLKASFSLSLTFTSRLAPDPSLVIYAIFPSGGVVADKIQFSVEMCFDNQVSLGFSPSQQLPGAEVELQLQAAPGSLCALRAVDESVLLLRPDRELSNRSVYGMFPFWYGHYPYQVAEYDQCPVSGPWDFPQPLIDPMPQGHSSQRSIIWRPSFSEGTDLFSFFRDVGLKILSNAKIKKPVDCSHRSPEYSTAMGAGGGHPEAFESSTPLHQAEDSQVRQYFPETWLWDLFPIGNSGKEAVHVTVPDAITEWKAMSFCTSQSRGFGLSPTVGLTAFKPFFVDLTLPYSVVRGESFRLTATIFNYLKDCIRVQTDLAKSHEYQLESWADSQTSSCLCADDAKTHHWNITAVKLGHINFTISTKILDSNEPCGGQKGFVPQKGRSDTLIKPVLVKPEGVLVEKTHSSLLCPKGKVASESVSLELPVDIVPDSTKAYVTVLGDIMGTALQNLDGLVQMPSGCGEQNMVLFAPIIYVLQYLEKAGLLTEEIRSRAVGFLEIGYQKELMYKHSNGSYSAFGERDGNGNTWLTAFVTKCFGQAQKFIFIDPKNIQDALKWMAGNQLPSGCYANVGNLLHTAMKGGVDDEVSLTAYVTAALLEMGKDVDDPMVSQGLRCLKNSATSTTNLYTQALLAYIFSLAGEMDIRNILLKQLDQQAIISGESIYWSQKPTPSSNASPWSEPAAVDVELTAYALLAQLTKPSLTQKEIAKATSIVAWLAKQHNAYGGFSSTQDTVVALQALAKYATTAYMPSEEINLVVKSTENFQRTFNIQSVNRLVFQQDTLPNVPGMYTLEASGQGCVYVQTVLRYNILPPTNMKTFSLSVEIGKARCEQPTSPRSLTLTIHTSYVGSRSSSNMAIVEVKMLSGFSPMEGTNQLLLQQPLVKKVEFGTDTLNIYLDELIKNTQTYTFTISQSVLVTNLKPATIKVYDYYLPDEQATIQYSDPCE
UniProt Q8N6N7: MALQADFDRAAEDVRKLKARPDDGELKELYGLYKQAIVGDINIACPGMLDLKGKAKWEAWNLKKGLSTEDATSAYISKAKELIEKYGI

crizotinib = compound: C[C@@H](Oc1cc(-c2cnn(C3CCNCC3)c2)cnc1N)c1c(Cl)ccc(F)c1Cl [crizotinib]
How it was run: as §1

[1] = compound: C[C@H](C1=CC=C(C=C1)C(=O)NC2=C3C=CNC3=NC=C2)N
How it was run: as §1

gandotinib = compound: Cc1cc(Nc2cc(CN3CCOCC3)c3nc(C)c(Cc4ccc(Cl)cc4F)n3n2)n[nH]1 [gandotinib]
How it was run: as §1

tozasertib = compound: Cc1cc(Nc2cc(N3CCN(C)CC3)nc(Sc3ccc(NC(=O)C4CC4)cc3)n2)n[nH]1 [tozasertib]
How it was run: as §1

doramapimod = compound: Cc1ccc(-n2nc(C(C)(C)C)cc2NC(=O)Nc2ccc(OCCN3CCOCC3)c3ccccc23)cc1 [doramapimod]
How it was run: as §1

bafetinib = compound: Cc1ccc(NC(=O)c2ccc(CN3CC[C@H](N(C)C)C3)c(C(F)(F)F)c2)cc1Nc1nccc(-c2cncnc2)n1 [bafetinib]
How it was run: as §1

[2] = compound: Cc1cccc(CC(=O)N2CCc3c2ccc(-c2cn(C)c4ncnc(N)c24)c3F)n1
How it was run: as §1

quisinostat = compound: Cn1cc(CNCC2CCN(c3ncc(C(=O)NO)cn3)CC2)c2ccccc21 [quisinostat]
How it was run: as §1

[3] = compound: NC(=O)Nc1cc(-c2cccc(F)c2)sc1C(=O)N[C@H]1CCCNC1
How it was run: as §1

[4] = compound: NC1(c2ccc(-c3nc4ccn5c(=O)[nH]nc5c4cc3-c3ccccc3)cc2)CCC1
How it was run: as §1

duvelisib = compound: C[C@H](Nc1ncnc2nc[nH]c12)c1cc2cccc(Cl)c2c(=O)n1-c1ccccc1 [duvelisib]
How it was run: as §1

dasatinib = compound: Cc1nc(Nc2ncc(C(=O)Nc3c(C)cccc3Cl)s2)cc(N2CCN(CCO)CC2)n1 [dasatinib]
How it was run: as §1

[5] = compound: Cn1cc(-c2ccc3c(c2)CCN3C(=O)Cc2cccc(C(F)(F)F)c2)c2c(N)ncnc21
How it was run: as §1

lapatinib = compound: CS(=O)(=O)CCNCc1ccc(-c2ccc3ncnc(Nc4ccc(OCc5cccc(F)c5)c(Cl)c4)c3c2)o1 [lapatinib]
How it was run: as §1

[6] = compound: NC(=O)c1cnc(N[C@@H]2CCCC[C@@H]2N)nc1Nc1cccc(-n2nccn2)c1
How it was run: as §1

nilotinib = compound: Cc1cn(-c2cc(NC(=O)c3ccc(C)c(Nc4nccc(-c5cccnc5)n4)c3)cc(C(F)(F)F)c2)cn1 [nilotinib]
How it was run: as §1

[7] = compound: Cc1nc(Nc2n[nH]c3c2CN(C(=O)N[C@H](CN(C)C)c2ccccc2)C3(C)C)c2sccc2n1
How it was run: as §1

[8] = compound: Cc1ncc(-c2ccnc(Nc3ccc(S(C)(=O)=O)cc3)n2)n1C(C)C
How it was run: as §1

tipifarnib = compound: Cn1cncc1[C@@](N)(c1ccc(Cl)cc1)c1ccc2c(c1)c(-c1cccc(Cl)c1)cc(=O)n2C [tipifarnib]
How it was run: as §1

Row | Target | log2 fold change (pictilisib) | log2 fold change (crizotinib) | log2 fold change [1] | log2 fold change (gandotinib) | log2 fold change (tozasertib) | log2 fold change (doramapimod) | log2 fold change (bafetinib) | log2 fold change [2] | log2 fold change (quisinostat) | log2 fold change [3] | log2 fold change [4] | log2 fold change (duvelisib) | log2 fold change (dasatinib) | log2 fold change [5] | log2 fold change (lapatinib) | log2 fold change [6] | log2 fold change (nilotinib) | log2 fold change [7] | log2 fold change [8] | log2 fold change (tipifarnib)
1 | ABCE1 (UniProt H0Y990) | inactive: 0.054 | inactive: 0.003 | inactive: 0.139 | inactive: -0.068 | inactive: -0.094 | inactive: 0.02 | inactive: -0.234 | inactive: -0.104 | inactive: -0.061 | inactive: 0.045 | inactive: -0.075 |  |  |  |  |  |  |  |  | 
2 | ABCA7 (UniProt Q8IZY2) |  | inactive: -0.038 |  |  |  | inactive: 0.187 |  |  | inactive: -0.142 | inactive: 0.16 |  | inactive: -0.034 | inactive: 0.143 | inactive: 0.079 |  |  |  |  |  | 
3 | ACD (UniProt Q96AP0) |  | inactive: -0.008 | inactive: 0.268 | inactive: -0.155 |  | inactive: 0.145 |  | inactive: -0.288 | inactive: -0.135 | inactive: 0.003 |  |  |  |  |  |  |  |  |  | 
4 | ACBD5 (UniProt Q5T8D3) |  |  | inactive: 0.019 | inactive: 0.02 |  |  |  | inactive: 0.243 |  |  | inactive: -0.054 | inactive: -0.054 | inactive: 0.059 | inactive: -0.129 | inactive: 0.022 | inactive: 0.041 |  |  |  | 
5 | ABCD4 (UniProt O14678) |  |  |  |  |  |  |  |  |  |  | inactive: 0.037 |  |  |  | inactive: -0.029 | inactive: 0.098 |  |  |  | 
6 | ABCA3 (UniProt Q99758) | inactive: -0.028 | active: -0.469 | inactive: -0.156 | inactive: 0.113 | inactive: -0.16 | inactive: 0.203 | inactive: -0.006 | inactive: -0.075 | inactive: 0.08 | inactive: -0.092 | inactive: -0.019 | inactive: 0.061 | inactive: 0.044 | inactive: -0.066 | inactive: 0.025 | inactive: 0.001 |  |  |  | 
7 | ABCA8 isoform 3 (UniProt O94911) |  | inactive: -0.143 | inactive: -0.087 | inactive: -0.089 |  | inactive: 0.067 |  | inactive: 0.037 | inactive: 0.005 | inactive: 0.041 | inactive: -0.208 |  |  |  | inactive: 0.076 | inactive: 0.104 |  |  |  | 
8 | ACAP3 (UniProt Q96P50) | inactive: 0.175 |  |  |  | inactive: -0.023 |  | inactive: 0.107 |  |  |  |  | inactive: 0.056 | inactive: 0.023 | inactive: 0.062 | inactive: 0.092 | inactive: -0.057 | inactive: 0.03 | inactive: -0.092 | inactive: 0.139 | inactive: -0.173
9 | ACE (UniProt P12821) |  |  |  |  |  |  |  |  |  |  | inactive: 0.046 |  |  |  | inactive: 0.073 | inactive: 0.122 |  |  |  | 
10 | ABRACL (UniProt Q9P1F3) | inactive: -0.075 | inactive: -0.105 | inactive: -0.053 | inactive: -0.003 |  | inactive: -0.014 | inactive: 0.09 | inactive: -0.047 | inactive: 0.053 | inactive: -0.083 | inactive: -0.076 | inactive: -0.239 | inactive: -0.119 | inactive: -0.067 | inactive: 0.154 | inactive: 0.037 | inactive: 0.194 | inactive: 0.006 | inactive: -0.042 | inactive: 0.023
11 | ABCE1 (UniProt P61221) | inactive: 0 | inactive: 0.002 | inactive: 0.021 | inactive: -0.014 | inactive: -0.018 | inactive: -0.022 | inactive: 0.046 | inactive: -0.021 | inactive: 0.004 | inactive: -0.013 | inactive: -0.023 | inactive: 0.017 | inactive: 0.046 | inactive: 0 | inactive: -0.017 | inactive: 0 | inactive: 0.037 | inactive: 0.105 | inactive: 0.015 | inactive: 0.01
12 | ACAD8 (UniProt Q9UKU7) | inactive: -0.153 | inactive: -0.033 | inactive: -0.091 | inactive: 0.012 |  | inactive: 0.081 | inactive: 0.006 | inactive: 0.126 | inactive: -0.047 | inactive: -0.006 |  | inactive: -0.021 | inactive: 0.071 | inactive: 0.002 | inactive: 0.115 | inactive: 0.031 |  |  |  | 
13 | AARSD1 (UniProt Q9BTE6) | inactive: 0.012 |  | inactive: -0.273 | inactive: 0.478 | inactive: -0.263 |  | inactive: 0.012 | inactive: -0.034 |  |  |  | inactive: 0.093 | inactive: 0.033 | inactive: 0.031 | inactive: -0.128 | inactive: 0.341 | inactive: 0.09 | inactive: -0.167 | inactive: 0.07 | inactive: 0.148
14 | AASDH (UniProt Q4L235) | inactive: 0.007 |  | inactive: -0.056 | inactive: -0.051 | inactive: 0.006 |  | inactive: -0.052 | inactive: 0.003 |  |  | inactive: 0.091 | inactive: -0.036 | inactive: -0.071 | inactive: 0.016 | inactive: 0.038 | inactive: 0.026 | inactive: -0.018 | inactive: 0.071 | inactive: -0.06 | inactive: -0.056
15 | A2ML1 (UniProt A8K2U0) | inactive: 0.477 | inactive: 0.006 | inactive: -0.039 | inactive: 0.542 |  | inactive: -0.055 | inactive: 0.067 | inactive: 0.074 | inactive: 0.122 | inactive: -0.136 | inactive: 0.123 |  |  |  | inactive: -0.057 | inactive: -0.066 |  |  |  | 
16 | A0A494C071, A0A494C071 | inactive: 0.003 |  | inactive: -0.209 | inactive: 0.273 |  |  | inactive: -0.34 | inactive: 0.291 |  |  |  | inactive: 0.107 | inactive: -0.238 | inactive: 0.097 |  |  |  |  |  | 
17 | ACBD7 (UniProt Q8N6N7) |  |  |  |  |  |  |  |  |  |  | inactive: 0.013 | inactive: 0.019 | inactive: 0.021 | inactive: -0.063 | inactive: -0.119 | inactive: -0.094 |  |  |  | 

Numbers 7–8, reprinted for reference:
Row | Target | log2 fold change (pictilisib) | log2 fold change (crizotinib) | log2 fold change [1] | log2 fold change (gandotinib) | log2 fold change (tozasertib) | log2 fold change (doramapimod) | log2 fold change (bafetinib) | log2 fold change [2] | log2 fold change (quisinostat) | log2 fold change [3] | log2 fold change [4] | log2 fold change (duvelisib) | log2 fold change (dasatinib) | log2 fold change [5] | log2 fold change (lapatinib) | log2 fold change [6] | log2 fold change (nilotinib) | log2 fold change [7] | log2 fold change [8] | log2 fold change (tipifarnib)
7 | ABCA8 isoform 3 (UniProt O94911) |  | inactive: -0.143 | inactive: -0.087 | inactive: -0.089 |  | inactive: 0.067 |  | inactive: 0.037 | inactive: 0.005 | inactive: 0.041 | inactive: -0.208 |  |  |  | inactive: 0.076 | inactive: 0.104 |  |  |  | 
8 | ACAP3 (UniProt Q96P50) | inactive: 0.175 |  |  |  | inactive: -0.023 |  | inactive: 0.107 |  |  |  |  | inactive: 0.056 | inactive: 0.023 | inactive: 0.062 | inactive: 0.092 | inactive: -0.057 | inactive: 0.03 | inactive: -0.092 | inactive: 0.139 | inactive: -0.173
